Some of the results follow.

Amino acid sequences for entries named in this document (tags omitted).
UniProt Q0JBA9, entry or part of it: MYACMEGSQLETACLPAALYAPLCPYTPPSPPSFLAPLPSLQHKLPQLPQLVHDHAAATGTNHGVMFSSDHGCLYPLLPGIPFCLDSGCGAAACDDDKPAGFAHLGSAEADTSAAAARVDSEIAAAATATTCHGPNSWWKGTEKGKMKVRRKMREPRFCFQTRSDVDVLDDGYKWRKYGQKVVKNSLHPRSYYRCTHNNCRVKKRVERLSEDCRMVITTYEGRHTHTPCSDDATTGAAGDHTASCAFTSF

For this test, the target named is OsWRKY34 (Oryza sativa, UniProt Q0JBA9 1-250). Briefly: protein-binding microarray (RPBM); PBS, 2% BSA, 51.3 ng/ul salmon testes DNA, 50 uM zinc acetate, 200 nM TF, 25 C, 1 h; high values mean tight binding. As to conditions: protein: recombinant; tags: N-terminal polyhistidine and DsRed monomer fusion (pET32a); label: CyDye5-dUTP incorporated in the synthesized complementary strand; 3' TTTTT single-stranded linker to array surface; dsDNA, one strand shown. In short, it runs like this:
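The binding signal is fluorescence intensity per array feature (arbitrary units). Readings came from an Axon 4000B scanner after a washed, 2% BSA-blocked, double-stranded custom Agilent array had been incubated for 1 h at 25 °C with 200 nM protein and 50 µM zinc acetate. The protein was a Ni–NTA-purified transcription factor fused N-terminally to polyhistidine and DsRed, expressed in E. coli BL21-CodonPlus.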
With “CCACCTAGTGATATGTGTGGTTGCTGGATTTCATACTCCCCGGAGTCACCTAGTGCAG”, the binding signal is 8030 fluorescence intensity (a.u.).

With “CATACATGTTAATTTGTTTCTCATGTTGTTCTTTCAGGTCCGGAGTCACCTAGTGCAG”, the binding signal is 12300 fluorescence intensity (a.u.).

“CGAACCATATCCGGGTTTATTTTTCTTTTTTTCAATTTTTCGGAGTCACCTAGTGCAG”: the binding signal is 8100 fluorescence intensity (a.u.).

Consider “TCTATTTTTTTTCTCCATGTTACCTTCTGCTAATATATTTCGGAGTCACCTAGTGCAG”, for which the binding signal is 10600 fluorescence intensity (a.u.).

Turning to “CTGGTTTCCGTGTCCAATTTTAACTGTCCGTCTTATATAACGGAGTCACCTAGTGCAG”, the binding signal is 14300 fluorescence intensity (a.u.).

Regarding “TCTCCTCACCGGCCCCTCTTCCCCTTCGATTCTGGCGGCTCGGAGTCACCTAGTGCAG”, the binding signal is 8880 fluorescence intensity (a.u.).

On to “CTCCTCCTCTTTCGCCGCGATTTCTTTAGGATTTTTTTTCCGGAGTCACCTAGTGCAG”, for which the binding signal is 9240 fluorescence intensity (a.u.).

Turning to “TTAGTTCTTCCTCATCAACATCGTCAGGGATGTTGTAGCTCGGAGTCACCTAGTGCAG”, the binding signal was 8060 fluorescence intensity (a.u.).

Regarding “CGTCATGGTATACTGTCAGTTGTGGTATCTTCATTCCGACCGGAGTCACCTAGTGCAG”, the binding signal is 10200 fluorescence intensity (a.u.).

Regarding “GGCTTATGGCGCAGGTCCGATCTAGAGCATCACTTCACACCGGAGTCACCTAGTGCAG”, the binding signal was 8080 fluorescence intensity (a.u.).

With “TTCTATCATGTTCTTGTATTTTTCCTATCTCTACGATTTTCGGAGTCACCTAGTGCAG”, the binding signal is 10500 fluorescence intensity (a.u.).

Regarding “ACAACGTCCAAGGTATCGCCATTGCTCTCCGAAGTCCGAACGGAGTCACCTAGTGCAG”, the binding signal was 8980 fluorescence intensity (a.u.).

For “GCTTTCTCTCAACTCCAAACTTTGACATTCTCGTTTTCCGCGGAGTCACCTAGTGCAG”, the binding signal was 10700 fluorescence intensity (a.u.).

Take “AAGTCTTATCCATCCATTTTTTTTCTCTCGTTTTCCTCTCCGGAGTCACCTAGTGCAG”: the binding signal was 10200 fluorescence intensity (a.u.).

“TTTTAAAAAAGTCAACAGCGTCAAACATTTTGGTATGGAGCGGAGTCACCTAGTGCAG”: the binding signal is 8400 fluorescence intensity (a.u.).

For the sequence “CCTCTCTTTTCTTGATTTCCTCAACTGTCACTACTACCTACGGAGTCACCTAGTGCAG”, the binding signal was 12100 fluorescence intensity (a.u.).

Consider “CCGCCGCCAACTGCACCCTCGCCGACGTCAACCACCTGGACGGAGTCACCTAGTGCAG”, for which the binding signal is 10200 fluorescence intensity (a.u.).

For the sequence “AACTTCTAACATTTTCGTCACATCGTTCCAATTTCAATCACGGAGTCACCTAGTGCAG”, the binding signal was 9310 fluorescence intensity (a.u.).

In the case of “CGAATGCCGACAACTTGCCCATTAGATCACATCACTACCTCGGAGTCACCTAGTGCAG”, the binding signal was 8100 fluorescence intensity (a.u.).

Take “AGTACCTGGAATATAAAGTCGGGGTCGAAATTCAGTATCCCGGAGTCACCTAGTGCAG”: the binding signal was 8730 fluorescence intensity (a.u.).

As to “TCGATTGCCGGGGTTTCATATGGTGTGGGTTCAAGTGAAGCGGAGTCACCTAGTGCAG”, the binding signal was 9460 fluorescence intensity (a.u.).

Regarding “GTTAGCTTCTACATTTCTCGTTTCTGCTGAAAATAGTGGACGGAGTCACCTAGTGCAG”, the binding signal is 9540 fluorescence intensity (a.u.).

As to “TCTCTTTCCTTGCTTGTTTTTTTCTCAACTCGATCCATCTCGGAGTCACCTAGTGCAG”, the binding signal is 8420 fluorescence intensity (a.u.).

Turning to “TTTTCACCATTTCCTTTGCATTGCCTTTTGGTGCCCGTTCCGGAGTCACCTAGTGCAG”, the binding signal is 13700 fluorescence intensity (a.u.).

Consider “CGCTTCACCCGCGCCATTTTCTCTTTTTTTTTAACCCTTCCGGAGTCACCTAGTGCAG”, for which the binding signal is 8260 fluorescence intensity (a.u.).

With “CGCTCTGTACTTACATTCGTTCCTTTTTTATATGATATTCCGGAGTCACCTAGTGCAG”, the binding signal was 9660 fluorescence intensity (a.u.).

With “TCTCTTTCCTGAGCTTGTACCCGTACGTCATTTGTGGAAACGGAGTCACCTAGTGCAG”, the binding signal is 10800 fluorescence intensity (a.u.).

“GTCACGCGCCTCGCCATCCACTTCGTCTCTCTCGTCTCGGCGGAGTCACCTAGTGCAG”: the binding signal was 11700 fluorescence intensity (a.u.).

As for “CACATGCTAAATCACCCGGATCAATCCCTACCGTCCATCCCGGAGTCACCTAGTGCAG”, the binding signal was 10000 fluorescence intensity (a.u.).

For “GGAAACGTAACACCCAAGTCATGATCTGTTACATATTACACGGAGTCACCTAGTGCAG”, the binding signal was 8192 fluorescence intensity (a.u.).

As for “TATCACTCGGTTTTTATTTCTTACGTGGCAGGCCTGCAATCGGAGTCACCTAGTGCAG”, the binding signal was 8730 fluorescence intensity (a.u.).

As for “CCCCAACTCCCACGCCATCTCGCCACCACCAACCGATTCACGGAGTCACCTAGTGCAG”, the binding signal is 8720 fluorescence intensity (a.u.).

Turning to “TCGGGCATGATCACACAACTATCCTGACCCATAGTTGGCCCGGAGTCACCTAGTGCAG”, the binding signal is 9490 fluorescence intensity (a.u.).

Turning to “GGCCACTAGTGCATTTTATTCTTTTTTTCCATGTTGGGCTCGGAGTCACCTAGTGCAG”, the binding signal is 8350 fluorescence intensity (a.u.).

“GCCTGCATCAACCATATATGTTGTCCTTCACCAATAAAACCGGAGTCACCTAGTGCAG”: the binding signal is 9820 fluorescence intensity (a.u.).

With “GGCGGCGGAGGAGGAGGAGGAGGAGGAGGAGGCAGCAATGCGGAGTCACCTAGTGCAG”, the binding signal is 10500 fluorescence intensity (a.u.).

On to “ATATCTACTCCCGGTTTCTGCTGGATTCCTTCCTTTTTCTCGGAGTCACCTAGTGCAG”, for which the binding signal is 17500 fluorescence intensity (a.u.).

In the case of “GCCGTTCGTTCCTCTTGCTGCTTCCGCCGCATCCATCCTGCGGAGTCACCTAGTGCAG”, the binding signal was 10500 fluorescence intensity (a.u.).

Take “GAAGCCCACCCAATTCGATTTTTTGGGCCGCCCCACCTTTCGGAGTCACCTAGTGCAG”: the binding signal was 8790 fluorescence intensity (a.u.).

As to “AGCTTGTCGTCGTCACCGGCCTCGCCGCTGCTTGGTCCATCGGAGTCACCTAGTGCAG”, the binding signal is 8040 fluorescence intensity (a.u.).

As to “AGTGTTTTTTCTTTTTTGGTGTTTATCGTCCAGCCTTCATCGGAGTCACCTAGTGCAG”, the binding signal is 8180 fluorescence intensity (a.u.).

As for “CTGGAACCGTTGTTGCATCATCTCACCCACCTGCGTGCTCCGGAGTCACCTAGTGCAG”, the binding signal is 9000 fluorescence intensity (a.u.).
